# Inconclusive results, whose numbers are uncertain, are shown with a selection of clear calls. Potencies beside an inconclusive call are fits to weak or partial responses and may not hold up. Activity calls are given as the source filed them. Calls follow the shape of the dose curve; as a rule, active = well fitted cell-killing curve with a large enough effect; inconclusive = small, poorly fitted or top-dose-only effect, or effect the other way; inactive = no such curve, though single readings can be large or run the other way.
# Tests used:
# [1] = Quantitative High-Throughput drug screen in 47 multiple myeloma cell lines against the NCATS MIPE library collection: L363_DSMZ cell viability assay (AID 1918984); conditions: L363 myeloma viability, CellTiter-Glo ATP luminescence, 48 h; viability (% of control): at 45.8 µM (top of the series); also: nearly all actives have a fitted effect of over 40% in size
# How it was run: (§1)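 Plated at 500 cells per well, myeloma lines received MIPE 4.0 compounds by pin tool. Following 48 h culture at 37 °C, CellTiter-Glo luminescence gave viability relative to DMSO and media-only controls.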
# [2] = Quantitative High-Throughput drug screen in 47 multiple myeloma cell lines against the NCATS MIPE library collection: KMS34_JCRB cell viability assay (AID 1918985); conditions: KMS34 myeloma viability, CellTiter-Glo ATP luminescence, 48 h; viability, percent of control: at 45.8 µM (top of the series); also: nearly all actives have a fitted effect of over 40% in size;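 as to viability, percent of control: 100% = DMSO-only wells and 0% = media-only wells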
# How it was run: as §1
# [3] = Quantitative High-Throughput drug screen in 47 multiple myeloma cell lines against the NCATS MIPE library collection: SKMM1_PLB cell viability assay (AID 1919863); conditions: SKMM1 myeloma viability, CellTiter-Glo ATP, 48 h; viability: stronger effect = lower value; also: nearly all actives have a fitted effect of over 35% in size
# How it was run: as §1
# [4] = Quantitative High-Throughput drug screen in 47 multiple myeloma cell lines against the NCATS MIPE library collection: U266_ATCC cell viability assay (AID 1919864); also: nearly all actives have a fitted effect of over 35% in size
# How it was run: as §1
# [5] = Quantitative High-Throughput drug screen in 47 multiple myeloma cell lines against the NCATS MIPE library collection: XG1_PLB cell viability assay (AID 1919866); also: nearly all actives have a fitted effect of over 35% in size
# How it was run: as §1
# [6] = Quantitative High-Throughput drug screen in 47 multiple myeloma cell lines against the NCATS MIPE library collection: OPM1_PLB cell viability assay (AID 1918989); also: nearly all actives have a fitted effect of over 40% in size;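 as to viability (% of control): 100% = DMSO-only wells and 0% = media-only wells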
# How it was run: as §1
# [7] = Quantitative High-Throughput drug screen in 47 multiple myeloma cell lines against the NCATS MIPE library collection: VP6_DJ cell viability assay (AID 1919867); conditions: ATP luminescence, 48 h; viability (% of DMSO): at 45.8 µM (top of the series); also: nearly all actives have a fitted effect of over 40% in size;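 as to viability (% of DMSO): 100% = DMSO-only wells and 0% = wells with media alone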
# How it was run: as §1
# [8] = Quantitative High-Throughput drug screen in 47 multiple myeloma cell lines against the NCATS MIPE library collection: OCIMY5_PLB cell viability assay (AID 1918988); conditions: OCI-MY5 myeloma viability, ATP luminescence, 48 h; viability, % of control: at 45.8 µM (top of the series); also: nearly all actives have a fitted effect of over 65% in size;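 as to viability, % of control: 100% = DMSO-treated wells and 0% = wells with media alone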
# How it was run: as §1
# [9] = Quantitative High-Throughput drug screen in 47 multiple myeloma cell lines against the NCATS MIPE library collection: XG6_PLB cell viability assay (AID 1919865); conditions: XG6 myeloma viability, CellTiter-Glo ATP luminescence, 48 h; viability (% of control): at 45.8 µM (top of the series); also: nearly all actives have a fitted effect of over 40% in size;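 as to viability (% of control): 100% = DMSO-only wells and 0% = media-only wells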
# How it was run: as §1
# [10] = Quantitative High-Throughput drug screen in 47 multiple myeloma cell lines against the NCATS MIPE library collection: OCIMY7_PLB cell viability assay (AID 1918987); conditions: OCI-MY7 myeloma viability, CellTiter-Glo ATP, 48 h; viability (% of DMSO): at 45.8 µM (top of the series); also: nearly all actives have a fitted effect of over 65% in size
# How it was run: as §1
# Potency is read from the fitted curve at half-maximal effect.
SMILES,Potency [1],Potency [2],Potency [3],Potency [4],Potency [5],Potency [6],Potency [7],Potency [8],Potency [9],Potency [10],viability [3]
CN(C)CC[C@H](CSc1ccccc1)Nc1ccc(S(=O)(=O)NC(=O)c2ccc(N3CCN(Cc4ccccc4-c4ccc(Cl)cc4)CC3)cc2)cc1[N+](=O)[O-],"inconclusive: 7.43 µM [cytotoxic, full curve]","inconclusive: 9.35 µM [cytotoxic, partial curve, poor fit]",active: 18.7 µM,active: 14.8 µM,"inconclusive: 5.9 µM [cytotoxic, full curve]",–,–,–,–,–,–
Cn1cnc2c(F)c(Nc3ccc(Br)cc3Cl)c(C(=O)NOCCO)cc21,active: 0.833 µM,"inconclusive: 16.6 µM [cytotoxic, partial curve, poor fit]",active: 1.18 µM,–,–,"inconclusive: 16.6 µM [cytotoxic, partial curve, poor fit]",active: 0.296 µM,–,–,–,–
Clc1ccccc1C(c1ccccc1)(c1ccccc1)n1ccnc1,"inconclusive: 4.69 µM [cytotoxic, partial curve, poor fit]","inconclusive: 18.7 µM [cytotoxic, partial curve]","inconclusive: 26.4 µM [cytotoxic, partial curve, poor fit]",–,"inconclusive: 16.6 µM [cytotoxic, partial curve]","inconclusive: 18.7 µM [cytotoxic, partial curve, poor fit]",–,"inconclusive: 26.4 µM [cytotoxic, single point]",–,–,–
Nc1nnc(-c2cccc(Cl)c2Cl)c(N)n1,"inconclusive: 33.2 µM [cytotoxic, single point]","inconclusive: 0.0033 µM [rising, full curve, poor fit]",–,"inconclusive: 33.2 µM [cytotoxic, single point]",–,–,"inconclusive: 33.2 µM [cytotoxic, single point]",inactive,–,–,–
COc1cc(N2CCC(N3CCN(C)CC3)CC2)ccc1Nc1ncc(Cl)c(Nc2ccccc2S(=O)(=O)C(C)C)n1,"inconclusive: 33.2 µM [rising, single point]","inconclusive: 1.32 µM [cytotoxic, full curve, poor fit]","inconclusive: 20.9 µM [cytotoxic, partial curve, poor fit]","inconclusive: 29.6 µM [cytotoxic, single point]","inconclusive: 3.32 µM [cytotoxic, full curve, poor fit]","inconclusive: 0.469 µM [cytotoxic, full curve, poor fit]","inconclusive: 1.18 µM [cytotoxic, full curve, poor fit]","inconclusive: 2.09 µM [cytotoxic, partial curve, poor fit]","inconclusive: 1.05 µM [cytotoxic, full curve, poor fit]",–,–
COc1ccc2c(Oc3ccc(NC(=O)c4c(C)n(CC(C)(C)O)n(-c5ccccc5)c4=O)cc3F)ccnc2c1,"inconclusive: 33.2 µM [cytotoxic, single point]","inconclusive: 0.0118 µM [cytotoxic, full curve, poor fit]","inconclusive: 33.2 µM [cytotoxic, single point]","inconclusive: 37.2 µM [cytotoxic, single point]",–,–,–,–,–,–,–
COc1ccc(C(=O)CC(=O)c2ccc(C(C)(C)C)cc2)cc1,active: 6.62 µM,"inconclusive: 9.35 µM [cytotoxic, full curve, poor fit]",active: 5.9 µM,active: 5.26 µM,–,–,active: 2.64 µM,–,–,–,–
N#CNC(=NCCCCCCOc1ccc(Cl)cc1)Nc1ccncc1,active: 0.662 µM,active: 0.0148 µM,–,–,–,–,"inconclusive: 0.0023 µM [cytotoxic, full curve]",–,–,inactive,–
COc1ccc(-n2c(C)c([N+](=O)[O-])c3ccc(O)cc32)cc1,"inconclusive: 6.62 µM [cytotoxic, partial curve, poor fit]","inconclusive: 10.5 µM [cytotoxic, partial curve, poor fit]",–,inactive,"inconclusive: 37.2 µM [cytotoxic, single point]",–,"inconclusive: 29.6 µM [cytotoxic, single point]","inconclusive: 29.6 µM [cytotoxic, single point]",inactive,–,–
Cc1cc(C(=O)N2CCN(c3cccc(Cl)c3)CC2)n(-c2ccccc2)n1,active: 0.132 µM,active: 1.05 µM,–,active: 20.9 µM,–,–,–,–,–,–,–
C=C1C(=O)OC(CCCCCCCC)C1C(=O)O (centres undefined),inactive,inactive,"inconclusive: 20.9 µM [cytotoxic, single point]","inconclusive: 18.7 µM [cytotoxic, partial curve, poor fit]",–,–,"inconclusive: 20.9 µM [cytotoxic, partial curve, poor fit]","inconclusive: 33.2 µM [cytotoxic, single point]",active: 20.9 µM,–,–
CO[C@H]1C[C@@H]2CC[C@@H](C)[C@@](O)(O2)C(=O)C(=O)N2CCCC[C@@H]2C(=O)O[C@H]([C@H](C)C[C@@H]2CC[C@H](OP(C)(C)=O)[C@H](OC)C2)CC(=O)[C@H](C)C=C(C)[C@@H](O)[C@@H](OC)C(=O)[C@H](C)C[C@H](C)C=CC=CC=C1C,"inconclusive: 5.9 µM [cytotoxic, partial curve, poor fit]","inconclusive: 23.5 µM [cytotoxic, single point]",–,inactive,–,"inconclusive: 18.7 µM [cytotoxic, partial curve]","inconclusive: 20.9 µM [cytotoxic, partial curve, poor fit]","inconclusive: 37.2 µM [cytotoxic, single point]","inconclusive: 23.5 µM [cytotoxic, partial curve, poor fit]",–,inactive: 83.3%
C[C@]12CC[C@@H]3c4ccc(O)cc4C[C@@H](CCCCCCCCCS(=O)CCCC(F)(F)C(F)(F)F)[C@H]3[C@H]1CC[C@H]2O (some centres undefined),inactive,"inconclusive: 8.33 µM [cytotoxic, full curve, poor fit]","inconclusive: 2.96 µM [cytotoxic, partial curve, poor fit]",inactive,–,–,inactive,–,–,–,–
CO[C@H]1C=CO[C@@]2(C)Oc3c(C)c(O)c4c(O)c(c5c(c4c3C2=O)NC2(CCN(CC(C)C)CC2)N=5)=NC(=O)C(C)=CC=C[C@H](C)[C@H](O)[C@@H](C)[C@@H](O)[C@@H](C)[C@H](OC(C)=O)[C@H]1C,inactive,"inconclusive: 0.0012 µM [cytotoxic, full curve, poor fit]",–,inactive,–,inactive,–,active: 23.5 µM,"inconclusive: 23.5 µM [cytotoxic, single point]",–,inactive: 99.2%
COc1cc(F)c(F)c(Nc2ccc(I)cc2F)c1NS(=O)(=O)C1(C[C@H](O)CO)CC1,"inconclusive: 18.7 µM [cytotoxic, partial curve, poor fit]","inconclusive: 7.43 µM [cytotoxic, full curve, poor fit]",–,–,"inconclusive: 8.33 µM [cytotoxic, partial curve]",–,"inconclusive: 11.8 µM [cytotoxic, partial curve, poor fit]","inconclusive: 23.5 µM [cytotoxic, partial curve, poor fit]","inconclusive: 18.7 µM [cytotoxic, partial curve]",–,inconclusive: 110% [cytotoxic]
CC1(C)SCCN(S(=O)(=O)c2ccc(OCC#CCO)cc2)[C@@H]1C(=O)NO,"inconclusive: 0.0187 µM [cytotoxic, full curve, poor fit]","inconclusive: 4.69 µM [cytotoxic, partial curve]",active: 0.118 µM,"inconclusive: 23.5 µM [cytotoxic, single point]",–,–,"inconclusive: 0.0037 µM [rising, full curve, poor fit]",–,"inconclusive: 0.0053 µM [rising, full curve, poor fit]",–,–
CCC(=O)NC[C@H](Cc1ccc(OCCc2nc(-c3ccccc3)oc2C)cc1)NC(C)=CC(=O)c1ccc(C(F)(F)F)cc1,"inconclusive: 9.35 µM [cytotoxic, partial curve, poor fit]",active: 23.5 µM,–,–,–,–,"inconclusive: 3.72 µM [cytotoxic, partial curve, poor fit]",–,–,"inconclusive: 0.935 µM [cytotoxic, full curve, poor fit]",–
C[C@]1(c2nc3c(C(N)=O)cccc3[nH]2)CCCN1,"inconclusive: 0.0059 µM [rising, full curve, poor fit]","inconclusive: 9.35 µM [cytotoxic, single point]","inconclusive: 0.003 µM [rising, full curve]","inconclusive: 0.0026 µM [rising, full curve, poor fit]","inconclusive: 16.6 µM [cytotoxic, partial curve]",–,"inconclusive: 23.5 µM [cytotoxic, partial curve]","inconclusive: 0.0021 µM [rising, full curve]","inconclusive: 20.9 µM [cytotoxic, partial curve]",–,–
O=c1[nH]c(=O)n([C@H]2C[C@@H](O)[C@@H](CO)O2)cc1F,"inconclusive: 5.26 µM [cytotoxic, partial curve]","inconclusive: 13.2 µM [cytotoxic, partial curve, poor fit]","inconclusive: 20.9 µM [cytotoxic, partial curve, poor fit]",–,–,–,–,–,"inconclusive: 0.235 µM [cytotoxic, full curve]",–,–
Cc1cccc(C)c1OCC(=O)N[C@@H](Cc1ccccc1)[C@@H](O)C[C@H](Cc1ccccc1)NC(=O)[C@H](C(C)C)N1CCCNC1=O,"inconclusive: 1.48 µM [cytotoxic, partial curve, poor fit]","inconclusive: 29.6 µM [cytotoxic, single point]","inconclusive: 18.7 µM [cytotoxic, partial curve]",–,–,–,"inconclusive: 16.6 µM [cytotoxic, partial curve, poor fit]",–,"inconclusive: 23.5 µM [cytotoxic, single point]",–,–

# Four consecutive entries out of the list so far, for reference:
SMILES,Potency [1],Potency [2],Potency [3],Potency [4],Potency [5],Potency [6],Potency [7],Potency [8],Potency [9],Potency [10],viability [3]
COc1cc(N2CCC(N3CCN(C)CC3)CC2)ccc1Nc1ncc(Cl)c(Nc2ccccc2S(=O)(=O)C(C)C)n1,"inconclusive: 33.2 µM [rising, single point]","inconclusive: 1.32 µM [cytotoxic, full curve, poor fit]","inconclusive: 20.9 µM [cytotoxic, partial curve, poor fit]","inconclusive: 29.6 µM [cytotoxic, single point]","inconclusive: 3.32 µM [cytotoxic, full curve, poor fit]","inconclusive: 0.469 µM [cytotoxic, full curve, poor fit]","inconclusive: 1.18 µM [cytotoxic, full curve, poor fit]","inconclusive: 2.09 µM [cytotoxic, partial curve, poor fit]","inconclusive: 1.05 µM [cytotoxic, full curve, poor fit]",–,–
COc1ccc2c(Oc3ccc(NC(=O)c4c(C)n(CC(C)(C)O)n(-c5ccccc5)c4=O)cc3F)ccnc2c1,"inconclusive: 33.2 µM [cytotoxic, single point]","inconclusive: 0.0118 µM [cytotoxic, full curve, poor fit]","inconclusive: 33.2 µM [cytotoxic, single point]","inconclusive: 37.2 µM [cytotoxic, single point]",–,–,–,–,–,–,–
COc1ccc(C(=O)CC(=O)c2ccc(C(C)(C)C)cc2)cc1,active: 6.62 µM,"inconclusive: 9.35 µM [cytotoxic, full curve, poor fit]",active: 5.9 µM,active: 5.26 µM,–,–,active: 2.64 µM,–,–,–,–
N#CNC(=NCCCCCCOc1ccc(Cl)cc1)Nc1ccncc1,active: 0.662 µM,active: 0.0148 µM,–,–,–,–,"inconclusive: 0.0023 µM [cytotoxic, full curve]",–,–,inactive,–

# From PubChem BioAssay (NCATS)
